Broadly, the AC50 is the midpoint of the concentration-response curve, whichever way the signal moves. Higher therefore signals activity only at high concentration.

Molecules are shown by their SMILES. The list shows a part of the results. Further columns of the screen follow, without active or inactive calls. The list favours compounds with an active or inconclusive main result. Words in brackets tell the shape of the fitted curve; partial curves, single points and poor fits give uncertain potencies.

The nature of this test: qHTS Assay for Lipid Storage Modulators in Drosophila S3 Cells.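 For cell number change: cells counted by Cell Tracker Red CMTPX staining in the red channel.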 As to conditions: BODIPY lipid droplet fluorescence, 18-24 h; for cell number change: measured here: cell count max response, cells fed with added oleic acid. In a few lines:
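Drosophila S3 cells loaded with oleic acid (400 uM, as added) and compounds at several concentrations; lipid droplets imaged by 488-nm laser-scanning cytometry, 500–530 nm intensity and object ratio to cell channel. Percent activity normalized to 20 uM Triacsin C.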

The mark [1] stands for this setting: measured here: lipid fluorescence (Fed channel) AC50, cells fed with added oleic acid.
[2] abbreviates: measured here: cell number channel AC50, cells fed with added oleic acid.

On to `CCCN(CC(=O)Nc1ccccc1C)C(=O)CSc1ccccc1C`, for which the cell number change was -5.56%. In addition, under setting [1], the AC50 is 32.6 µM [falling, partial curve].

For `CC(=O)Nc1ccc(S(=O)(=O)c2ccc(N)cc2)cc1N`, the cell number change was -15.5%. In addition, under setting [2], the AC50 was 6.51 µM [falling, single point]. In addition, the AC50 under setting [1] is 2.59 µM [rising, single point].

`Cc1cc(OCC(=O)N2CCN(c3ccc(F)cc3)CC2)c2c(C)cc(=O)oc2c1`: the cell number change worked out at 22%. The AC50 under setting [1] is 5.8 µM [rising, single point].

For the molecule `O=C(Oc1cc(-c2ccccc2)no1)c1ccc(Cl)cc1`, the cell number change worked out at 46.6%. In addition, under setting [2], the AC50 is 14.6 µM [rising, partial curve, poor fit]. The AC50 under setting [1] was 29.1 µM [falling, single point].

Consider `COc1ccc(CCNc2oc(-c3ccccc3OC)nc2C#N)cc1`, for which the AC50 by setting is: under setting [2], 1.84 µM [rising, partial curve]; under setting [1], 2.06 µM [rising, partial curve].

As to `Cc1ccc(Cl)cc1N1CCN(C(=O)c2ccc(CS(=O)Cc3ccc(Cl)cc3)o2)CC1` (stereo not drawn), the cell number change is -31.4%. In addition, the AC50 under setting [2] was 29.1 µM [falling, single point]. Moreover, the AC50 under setting [1] was 29.1 µM [falling, single point].

With `CCCc1nc(SCC(=O)Nc2nc3c(s2)CCCC3)c2ccccc2n1`, the cell number change was found to be 15.8%. The AC50 under setting [1] was 0.092 µM [falling, full curve, poor fit].

For `O=C(Cc1ccc(Nc2nc(=S)[nH]c3ccccc23)cc1)NC1CCCCC1`, the AC50 under setting [1] is 2.91 µM [rising, single point].

For `Cc1cc(C)n(Cc2ccc(C(=O)N/N=C/c3ccc(-c4ccc([N+](=O)[O-])cc4)o3)o2)n1`, the cell number change was 72.8%. The AC50 under setting [2] was 29.1 µM [rising, single point]. The half-maximal activity concentration (AC50) under setting [1] is 29.1 µM [falling, single point].

With `COc1ccc(-c2cn[nH]c2-c2ccc(OC)cc2O)cc1`, the cell number change is -6.94%. In addition, the AC50 under setting [1] was 29.1 µM [falling, partial curve].

For `COc1ccc2[nH]c(C(=O)O)c(CCC(=O)O)c2c1`, the cell number change is -19.4%. Besides, the AC50 under setting [1] was 0.231 µM [falling, full curve, poor fit].

On to `COCCN(C(=O)CCc1nnc(Cc2c[nH]c3ccccc23)o1)C(C)C`, for which the cell number change is -15.9%.

In the case of `CCOc1ccc(NC(=O)CN(C)C(=O)c2n[nH]c(=O)c3ccccc23)cc1OCC`, the cell number change was 25%. Further, the AC50 under setting [2] is 0.116 µM [falling, full curve, poor fit].

In the case of `CCc1cc2c(=O)n(-c3ccccc3)c(=S)[nH]c2s1`, the cell number change came to 2.97%. The AC50 under setting [2] was 5.17 µM [falling, single point]. Besides, the AC50 under setting [1] was 3.66 µM [falling, single point].

Take `CC(C)(C)NC(=O)[C@]1(C)CCC[C@@]2(C)C3CC[C@@]4(C)C[C@]3(CCC21)CC4=O` (stereo partly drawn): the cell number change was -7.8%. Also, the AC50 under setting [1] is 29.1 µM [rising, single point].

(Values after PubChem BioAssay AID2685 (National Center for Advancing Translational Sciences (NCATS), 2010).)
